Measurements: the supplement of paper PMC6078165
The reference is the same well before dosing, and untreated signal decays as well.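 Fibroblast labels denote human fibroblasts, mainly primary ones from uterus (C12385, HUF), lung (H6013), bone (Hs27A), adrenal (HADF) and skin (WS1), plus mammary HMF and breast cancer-associated Hs343T. Cancer cells are basal-like or mesenchymal-like triple-negative breast cancer lines. A hit is a response shift exceeding 3x replicate standard deviation. The tissue of the other fibroblasts is not given here.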

System: Hs578T
Test: relative JC-1 red fluorescence (viability) vs pre-drug, coculture with fibroblast (fraction); higher = more viable cancer cells
Description: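 JC-1 labelled TNBC cells cocultured 1:1 (1,500 cells each) with CellTrace Violet stained primary or stromal fibroblasts in 384-well plates in FluoroBrite medium, treated with one of 42 anticancer drugs at 0.1, 1, 10 or 100 uM. JC-1 red fluorescence (mitochondrial integrity in cancer cells only) was read by plate reader every 8 h for 72 h. Values are normalised to each well's pre-drug value. The stock of one drug was tenfold lower, so its dose labels may be too high.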

COc1cc([C@@H]2c3cc4c(cc3[C@@H](O[C@@H]3O[C@@H]5CO[C@@H](C)O[C@H]5[C@H](O)[C@H]3O)[C@H]3COC(=O)[C@H]23)OCO4)cc(OC)c1O [Etoposide]
relative JC-1 red fluorescence
Conditions | 8 h | 16 h | 24 h | 32 h | 40 h | 48 h | 56 h | 64 h | 72 h
10 µM | 0.869 | 0.7882 | 0.744 | 0.703 | 0.639 | 0.602 | 0.585 | 0.559 | 0.564
100 µM | 0.896 | 0.838 | 0.815 | 0.765 | 0.687 | 0.636 | 0.62 | 0.587 | 0.573

relative JC-1 red fluorescence
Conditions | 8 h | 16 h | 24 h | 32 h | 40 h | 48 h | 56 h | 64 h | 72 h
10 µM, coculture fibroblast: C12385 | 0.824 | 0.695 | 0.645 | 0.557 | 0.501 | 0.465 | 0.432 | 0.422 | 0.415
10 µM, coculture fibroblast: H6013 | 0.838 | 0.785 | 0.735 | 0.699 | 0.658 | 0.635 | 0.615 | 0.604 | 0.572
10 µM, coculture fibroblast: H6019 | 0.801 | 0.721 | 0.67 | 0.572 | 0.525 | 0.495 | 0.463 | 0.444 | 0.43
10 µM, coculture fibroblast: H6076 | 0.9267 | 0.8546 | 0.7956 | 0.74611 | 0.68345 | 0.6635 | 0.624 | 0.601 | 0.583
10 µM, coculture fibroblast: H6231 | 0.8988 | 0.812 | 0.736 | 0.6877 | 0.6143 | 0.585 | 0.5365 | 0.52 | 0.502
10 µM, coculture fibroblast: HADF | 0.888 | 0.846 | 0.783 | 0.738 | 0.7029 | 0.684 | 0.655 | 0.64 | 0.614
10 µM, coculture fibroblast: HCFa | 0.835 | 0.755 | 0.6779 | 0.6166 | 0.558 | 0.535 | 0.503 | 0.496 | 0.464
10 µM, coculture fibroblast: HCPF | 0.892 | 0.7995 | 0.74726 | 0.712 | 0.645 | 0.62 | 0.59 | 0.552 | 0.524
10 µM, coculture fibroblast: HHSteC | 0.854 | 0.788 | 0.719 | 0.6592 | 0.61 | 0.582 | 0.552 | 0.533 | 0.51
10 µM, coculture fibroblast: HMF | 0.917 | 0.834 | 0.772 | 0.7243 | 0.663 | 0.6384 | 0.596 | 0.573 | 0.549
10 µM, coculture fibroblast: HPFa | 0.9165 | 0.869 | 0.835 | 0.801 | 0.777 | 0.763 | 0.729 | 0.72 | 0.69
10 µM, coculture fibroblast: HUF | 0.832 | 0.706 | 0.664 | 0.557 | 0.492 | 0.4592 | 0.43 | 0.417 | 0.409
10 µM, coculture fibroblast: Hs27A | 0.878 | 0.8277 | 0.785 | 0.751 | 0.708 | 0.703 | 0.67 | 0.663 | 0.619
10 µM, coculture fibroblast: Hs343T | 0.931 | 0.83 | 0.763 | 0.728 | 0.644 | 0.613 | 0.559 | 0.522 | 0.505
10 µM, coculture fibroblast: WS1 | 0.82961 | 0.745 | 0.704 | 0.615 | 0.55 | 0.528 | 0.501 | 0.492 | 0.48321
100 µM, coculture fibroblast: C12385 | 0.812 | 0.766 | 0.732 | 0.665 | 0.59387 | 0.549 | 0.5212 | 0.5018 | 0.492
100 µM, coculture fibroblast: H6013 | 0.899 | 0.903 | 0.875 | 0.865 | 0.812 | 0.7764 | 0.71 | 0.686 | 0.643
100 µM, coculture fibroblast: H6019 | 0.781 | 0.739 | 0.754 | 0.693 | 0.669 | 0.657 | 0.651 | 0.663 | 0.659
100 µM, coculture fibroblast: H6076 | 0.911 | 0.856 | 0.841 | 0.8187 | 0.751 | 0.714 | 0.658 | 0.626 | 0.626
100 µM, coculture fibroblast: H6231 | 0.8812 | 0.815 | 0.7898 | 0.7462 | 0.67 | 0.63444 | 0.584 | 0.564 | 0.551
100 µM, coculture fibroblast: HADF | 0.949 | 0.872 | 0.927 | 0.908 | 0.864 | 0.836 | 0.789 | 0.767 | 0.742
100 µM, coculture fibroblast: HCFa | 0.8761 | 0.8656 | 0.833 | 0.774 | 0.717 | 0.716 | 0.696 | 0.69 | 0.651
100 µM, coculture fibroblast: HCPF | 0.9087 | 0.867 | 0.857 | 0.821 | 0.748 | 0.716 | 0.694 | 0.646 | 0.644
100 µM, coculture fibroblast: HHSteC | 0.898 | 0.883 | 0.8568 | 0.818 | 0.753 | 0.72 | 0.692 | 0.67 | 0.638
100 µM, coculture fibroblast: HMF | 0.8902 | 0.822 | 0.789 | 0.769 | 0.7 | 0.657 | 0.62 | 0.589 | 0.572
100 µM, coculture fibroblast: HPFa | 0.92 | 0.8901 | 0.855 | 0.7973 | 0.744 | 0.698 | 0.659 | 0.644 | 0.609
100 µM, coculture fibroblast: HUF | 0.825 | 0.73 | 0.741 | 0.668 | 0.626 | 0.591 | 0.558 | 0.556 | 0.553
100 µM, coculture fibroblast: Hs27A | 0.92 | 0.911 | 0.901 | 0.865 | 0.79 | 0.777 | 0.739 | 0.733 | 0.695
100 µM, coculture fibroblast: Hs343T | 0.959 | 0.872 | 0.8422 | 0.812 | 0.706 | 0.657 | 0.618 | 0.579 | 0.573
100 µM, coculture fibroblast: WS1 | 0.793 | 0.732 | 0.697 | 0.618 | 0.556 | 0.539 | 0.521 | 0.516 | 0.515
